At least one structure is not confirmed: it was looked up by name or label, or the drawing left a doubt.
What was measured:
[1] = system: kit-A4-DEI cells; assay: Differentiation of kit-A4-DEI cells in maturation medium (IMIT and 4 unit of erythropoietin); format: cell-based, human; settings: RU486 added to eliminate residual traces of dexamethasone in the culture medium
[2] = system: cells from the A4 clone (hemizygous D816V kit iPSC line); assay: Terminal erythroid differentiation of D816V iPSC-derived cells (FIG. 5A); format: cell-based, human; settings: clone A4, dasatinib introduced starting at day 35, no SCF and Epo

SMILES	speed of differentiation [1]	effect on differentiation [2]
CC#C[C@]1(O)CC[C@H]2[C@@H]3CCC4=CC(=O)CCC4=C3[C@@H](c3ccc(N(C)C)cc3)C[C@@]21C [RU486]	modulated to some degree	–
Cc1nc(Nc2ncc(C(=O)Nc3c(C)cccc3Cl)s2)cc(N2CCN(CCO)CC2)n1 [dasatinib]	–	dramatically accelerated the differentiation

From patent US20250283041A1, “METHODS FOR PRODUCING RED BLOOD CELLS” (Albert Einstein College of Medicine, priority 2022, published 2025)
